This assay addresses Lamin A (human (endogenous in PDLSCs)) (UniProt P02545). Put plainly: co-IP; endogenous proteins from control and compressive-force-stressed PDLSCs; lysis buffer with 0.5% NP40, lysate pre-cleared with protein A beads, precipitated with a specific antibody and protein A beads, extensive washing, western blot; which protein was precipitated not given. For orientation: Immunoblotting shows a protein as a band on a membrane.

By UniProt entry, the sequences of proteins in these tests, tags left out. Residues count along the entry.
UniProt P02545, residues 1-646: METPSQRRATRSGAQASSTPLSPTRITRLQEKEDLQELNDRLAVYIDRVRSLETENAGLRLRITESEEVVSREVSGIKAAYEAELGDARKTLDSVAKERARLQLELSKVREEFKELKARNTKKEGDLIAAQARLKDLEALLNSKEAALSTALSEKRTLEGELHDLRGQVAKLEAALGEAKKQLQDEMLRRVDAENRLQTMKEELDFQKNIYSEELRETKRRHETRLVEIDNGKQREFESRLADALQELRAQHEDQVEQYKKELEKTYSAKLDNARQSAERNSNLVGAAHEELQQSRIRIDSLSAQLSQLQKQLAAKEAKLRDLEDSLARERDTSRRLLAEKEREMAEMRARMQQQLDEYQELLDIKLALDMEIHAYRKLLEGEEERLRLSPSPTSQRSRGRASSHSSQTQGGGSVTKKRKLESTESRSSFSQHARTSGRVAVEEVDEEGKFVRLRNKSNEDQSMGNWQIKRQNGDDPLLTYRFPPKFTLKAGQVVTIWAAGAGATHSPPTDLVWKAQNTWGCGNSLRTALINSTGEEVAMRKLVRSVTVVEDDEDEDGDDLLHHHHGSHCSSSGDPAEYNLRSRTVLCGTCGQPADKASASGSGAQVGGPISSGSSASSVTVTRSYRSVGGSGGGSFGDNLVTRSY

These are yes or no findings as the source states them, for the method shown. Binding seen in cells or lysates may run through a third protein. Some results given as binding are weak or reduced against the parent protein; the word gives no strength.

B1: retinoblastoma protein (RB) (protein, UniProt P06400 1-928)
chain: MPPKTPRKTAATAAAAAAEPPAPPPPPPPEEDPEQDSGPEDLPLVRLEFEETEEPDFTALCQKLKIPDHVRERAWLTWEKVSSVDGVLGGYIQKKKELWGICIFIAAVDLDEMSFTFTELQKNIEISVHKFFNLLKEIDTSTKVDNAMSRLLKKYDVLFALFSKLERTCELIYLTQPSSSISTEINSALVLKVSWITFLLAKGEVLQMEDDLVISFQLMLCVLDYFIKLSPPMLLKEPYKTAVIPINGSPRTPRRGQNRSARIAKQLENDTRIIEVLCKEHECNIDEVKNVYFKNFIPFMNSLGLVTSNGLPEVENLSKRYEEIYLKNKDLDARLFLDHDKTLQTDSIDSFETQRTPRKSNLDEEVNVIPPHTPVRTVMNTIQQLMMILNSASDQPSENLISYFNNCTVNPKESILKRVKDIGYIFKEKFAKAVGQGCVEIGSQRYKLGVRLYYRVMESMLKSEEERLSIQNFSKLLNDNIFHMSLLACALEVVMATYSRSTSQNLDSGTDLSFPWILNVLNLKAFDFYKVIESFIKAEGNLTREMIKHLERCEHRIMESLAWLSDSPLFDLIKQSKDREGPTDHLESACPLNLPLQNNHTAADMYLSPVRSPKKKGSTTRVNSTANAETQATSAFQTQKPLKSTSLSLFYKKVYRLAYLRLNTLCERLLSEHPELEHIIWTLFQHTLQNEYELMRDRHLDQIMMCSMYGICKVKNIDLKFKIIVTAYKDLPHAVQETFKRVLIKEEEYDSIIVFYNSVFMQRLKTNILQYASTRPPTLSPIPHIPRSPYKFPSSPLRIPGGNIYISPLKSPYKISEGLPTPTKMTPRSRILVSIGESFGTSEKFQKINQMVCNSDRVLKRSAEGSNPPKPLKKLRFDIEGSDEADGSKHLPGESKFQQKLAEMTSTRTRMQKQKMNDSMDTSNKEEK
As for B1, the binding result is recorded as “binds”.
